Test results published in article PMC7045432.
These are yes or no findings as the source states them, for the method shown. Binding seen in cells or lysates may run through a third protein. Some results given as binding are weak or reduced against the parent protein; the word gives no strength.

Amino acid sequences for entries named in this document (tags omitted).
UniProt Q6P6C2: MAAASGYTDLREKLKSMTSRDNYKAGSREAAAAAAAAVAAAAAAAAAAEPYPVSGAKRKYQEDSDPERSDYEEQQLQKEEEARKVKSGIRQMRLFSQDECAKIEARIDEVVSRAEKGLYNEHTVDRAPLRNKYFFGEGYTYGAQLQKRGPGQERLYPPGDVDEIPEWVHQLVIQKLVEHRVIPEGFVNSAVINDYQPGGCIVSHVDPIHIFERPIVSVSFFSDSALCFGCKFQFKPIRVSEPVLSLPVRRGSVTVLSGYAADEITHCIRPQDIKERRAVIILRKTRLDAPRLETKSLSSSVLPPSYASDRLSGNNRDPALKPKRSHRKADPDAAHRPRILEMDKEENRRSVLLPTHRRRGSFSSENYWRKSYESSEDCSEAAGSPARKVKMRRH
UniProt Q14152: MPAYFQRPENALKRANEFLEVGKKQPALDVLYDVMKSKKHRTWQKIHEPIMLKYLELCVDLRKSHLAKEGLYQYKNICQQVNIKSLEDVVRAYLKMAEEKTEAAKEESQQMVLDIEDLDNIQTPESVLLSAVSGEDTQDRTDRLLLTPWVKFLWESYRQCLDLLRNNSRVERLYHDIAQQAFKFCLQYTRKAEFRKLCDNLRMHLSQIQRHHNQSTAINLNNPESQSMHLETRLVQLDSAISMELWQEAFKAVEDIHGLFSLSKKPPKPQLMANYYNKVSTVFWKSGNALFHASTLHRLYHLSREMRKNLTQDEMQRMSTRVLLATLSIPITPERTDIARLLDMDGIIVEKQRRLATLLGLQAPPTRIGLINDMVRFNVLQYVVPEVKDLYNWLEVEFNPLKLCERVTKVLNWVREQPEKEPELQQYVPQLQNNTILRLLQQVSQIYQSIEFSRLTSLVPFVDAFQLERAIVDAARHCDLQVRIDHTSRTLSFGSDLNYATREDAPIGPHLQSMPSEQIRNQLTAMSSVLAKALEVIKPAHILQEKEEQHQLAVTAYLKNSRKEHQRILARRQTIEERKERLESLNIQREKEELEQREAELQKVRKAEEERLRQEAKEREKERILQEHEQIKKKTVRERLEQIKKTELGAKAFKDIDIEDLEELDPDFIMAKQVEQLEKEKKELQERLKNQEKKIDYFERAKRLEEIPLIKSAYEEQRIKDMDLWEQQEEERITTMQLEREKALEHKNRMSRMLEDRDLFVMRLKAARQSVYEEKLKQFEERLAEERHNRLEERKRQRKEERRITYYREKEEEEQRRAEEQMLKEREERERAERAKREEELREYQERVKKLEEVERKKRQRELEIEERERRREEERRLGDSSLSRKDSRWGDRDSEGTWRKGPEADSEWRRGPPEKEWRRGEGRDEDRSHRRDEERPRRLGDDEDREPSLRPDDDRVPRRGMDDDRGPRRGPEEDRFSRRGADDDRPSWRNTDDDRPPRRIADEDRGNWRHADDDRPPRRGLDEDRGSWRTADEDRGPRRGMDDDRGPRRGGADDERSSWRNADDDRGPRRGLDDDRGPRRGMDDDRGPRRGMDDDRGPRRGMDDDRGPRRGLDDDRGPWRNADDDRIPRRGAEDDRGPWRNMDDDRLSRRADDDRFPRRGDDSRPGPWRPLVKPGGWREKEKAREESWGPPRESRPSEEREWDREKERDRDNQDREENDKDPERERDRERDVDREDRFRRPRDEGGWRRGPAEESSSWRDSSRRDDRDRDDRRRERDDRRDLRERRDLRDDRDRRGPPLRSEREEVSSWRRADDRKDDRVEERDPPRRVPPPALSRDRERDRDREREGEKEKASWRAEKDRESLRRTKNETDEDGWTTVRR
UniProt Q15717: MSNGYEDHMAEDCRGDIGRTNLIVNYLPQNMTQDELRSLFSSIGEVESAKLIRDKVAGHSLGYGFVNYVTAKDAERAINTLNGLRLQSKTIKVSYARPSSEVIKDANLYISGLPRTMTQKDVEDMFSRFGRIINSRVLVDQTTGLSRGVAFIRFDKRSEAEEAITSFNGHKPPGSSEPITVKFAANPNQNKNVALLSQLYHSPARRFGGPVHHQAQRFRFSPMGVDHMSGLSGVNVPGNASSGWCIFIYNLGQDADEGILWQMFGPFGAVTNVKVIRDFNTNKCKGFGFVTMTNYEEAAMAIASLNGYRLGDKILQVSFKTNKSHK
UniProt Q9BYJ9: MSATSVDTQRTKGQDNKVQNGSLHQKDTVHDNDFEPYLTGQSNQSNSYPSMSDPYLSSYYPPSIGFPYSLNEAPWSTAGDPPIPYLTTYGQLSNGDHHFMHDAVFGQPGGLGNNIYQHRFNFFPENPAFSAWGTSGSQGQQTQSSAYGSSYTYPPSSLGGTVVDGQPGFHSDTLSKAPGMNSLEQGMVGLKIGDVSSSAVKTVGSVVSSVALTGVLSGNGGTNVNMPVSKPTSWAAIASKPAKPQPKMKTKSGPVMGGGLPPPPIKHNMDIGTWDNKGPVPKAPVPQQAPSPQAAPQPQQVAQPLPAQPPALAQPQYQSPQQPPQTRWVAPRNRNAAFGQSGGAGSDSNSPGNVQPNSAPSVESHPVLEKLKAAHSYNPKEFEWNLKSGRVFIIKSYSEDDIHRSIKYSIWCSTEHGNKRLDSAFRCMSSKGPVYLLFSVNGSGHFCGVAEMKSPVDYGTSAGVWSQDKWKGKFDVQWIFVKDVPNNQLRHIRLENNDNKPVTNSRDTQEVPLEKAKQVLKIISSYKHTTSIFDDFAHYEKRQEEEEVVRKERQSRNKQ

Tests used:
[1] = target: AlkB homolog 5 (ALKBH5) (human (endogenous in A549)) (UniProt Q6P6C2); assay: co-IP; endogenous co-IP from A549 cell lysates, immunoprecipitation with an antibody against either partner, western blot; for YTHDF1/2 with YTHDF3 also in cells transfected with shALKBH5 or ALKBH5 (interaction not affected)
[2] = target: Eukaryotic translation initiation factor 3 subunit A (eIF3a) (human (endogenous in A549)) (UniProt Q14152); assay: as above

Substance | binding [1] | binding [2]
Human antigen R (HuR) (from UniProt Q15717 1-326) | binds | –
YTHDF1 (from UniProt Q9BYJ9 1-559) | – | binds
